# Results published in US20210275506A1, “COMPOSITIONS AND METHODS OF TREATMENT” (Blueberry Therapeutics Limited, priority 2018, published 2021).
# At least one compound was matched to its structure with a doubt left.
# Key:
# [1] = DLS particle size (z-average) and polydispersity index of API:Nanocin formulations; assay type: physicochemical; set-up: z-average: unit not given here
# [2] = test system: IL-8; assay: Inflammation assay: IL-8 release of LPS-stimulated THP-1 cells; assay type: cell-based, human; details: dose range 0-30 ug/ml
structure (smiles),measurement,setting,value
CO[C@H]1C[C@@H]2CC[C@@H](C)[C@@](O)(O2)C(=O)C(=O)N2CCCC[C@H]2C(=O)O[C@H]([C@H](C)C[C@@H]2CC[C@@H](O)[C@H](OC)C2)CC(=O)[C@H](C)/C=C(\C)[C@@H](O)[C@@H](OC)C(=O)[C@H](C)C[C@H](C)/C=C/C=C/C=C/1C [Rapamycin],"polydispersity index, report in words",[1],high
same,PDI,[1]; 0.33:1 mg/ml API:N,0.01
same,z-average,[1]; 0.33:1 mg/ml API:N,68.44
same,PDI,[1]; 1:1 mg/ml API:N,1
same,z-average,[1]; 1:1 mg/ml API:N,1001
same,"potency at inhibiting the LPS inflammatory response, in words",[2],more potent than Ibuprofen
